# Test results taken from PMC5548489.
# By UniProt entry, the sequences of proteins in these tests, tags left out.
# UniProt P03372: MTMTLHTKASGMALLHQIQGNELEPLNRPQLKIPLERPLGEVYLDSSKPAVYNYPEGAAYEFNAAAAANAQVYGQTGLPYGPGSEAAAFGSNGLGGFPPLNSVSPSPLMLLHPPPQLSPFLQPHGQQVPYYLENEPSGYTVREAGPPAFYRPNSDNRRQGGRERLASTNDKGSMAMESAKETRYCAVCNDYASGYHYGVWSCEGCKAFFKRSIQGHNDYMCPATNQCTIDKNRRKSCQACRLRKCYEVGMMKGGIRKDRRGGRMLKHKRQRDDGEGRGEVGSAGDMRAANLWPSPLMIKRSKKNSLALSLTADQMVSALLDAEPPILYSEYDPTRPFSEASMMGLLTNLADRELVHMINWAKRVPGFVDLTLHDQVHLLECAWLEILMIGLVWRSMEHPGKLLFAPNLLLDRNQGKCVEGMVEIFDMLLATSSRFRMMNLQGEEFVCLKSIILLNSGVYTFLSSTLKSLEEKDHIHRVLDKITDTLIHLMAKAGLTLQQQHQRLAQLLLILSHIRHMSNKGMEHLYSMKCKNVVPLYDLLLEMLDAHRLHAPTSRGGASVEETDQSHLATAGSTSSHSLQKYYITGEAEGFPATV
# Results are given in words; binding and its absence hold for the method and conditions named. Binding seen in cells or lysates may run through a third protein. These calls come from enrichment with a bait or labelling near it, and not all partners need be listed.
# Target: estrogen receptor alpha (ER) (human (endogenous in MCF-7 and ZR-75)) (UniProt P03372)
# Test: affinity purification with mass spectrometry; anti-ER antibody (Santa Cruz sc-8002) on Dynabeads Protein G, 1.5 mg lysate of MCF-7 or ZR-75 cells overnight at 4°C; cells starved, vehicle or 10 µM ERX-11 for 2 hr, then 10 nM E2 for 2 hr; the named proteins are ER binders whose co-precipitation was disrupted by ERX-11
row,binding,Binder
1,binds,"CCNL1 (protein, UniProt Q9UK58 1-526) MASGPHSTATAAAAASSAAPSAGGSSSGTTTTTTTTTGGILIGDRLYSEVSLTIDHSLIPEERLSPTPSMQDGLDLPSETDLRILGCELIQAAGILLRLPQVAMATGQVLFHRFFYSKSFVKHSFEIVAMACINLASKIEEAPRRIRDVINVFHHLRQLRGKRTPSPLILDQNYINTKNQVIKAERRVLKELGFCVHVKHPHKIIVMYLQVLECERNQTLVQTAWNYMNDSLRTNVFVRFQPETIACACIYLAARALQIPLPTRPHWFLLFGTTEEEIQEICIETLRLYTRKKPNYELLEKEVEKRKVALQEAKLKAKGLNPDGTPALSTLGGFSPASKPSSPREVKAEEKSPISINVKTVKKEPEDRQQASKSPYNGVRKDSKRSRNSRSASRSRSRTRSRSRSHTPRRHYNNRRSRSGTYSSRSRSRSRSHSESPRRHHNHGSPHLKAKHTRDDLKSSNRHGHKRKKSRSRSQSKSRDHSDAAKKHRHERGHHRDRRERSRSFERSHKSKHHGGSRSGHGRHRR"
2,binds,"RFX1 (protein, UniProt P22670 1-979) MATQAYTELQAAPPPSQPPQAPPQAQPQPPPPPPPAAPQPPQPPTAAATPQPQYVTELQSPQPQAQPPGGQKQYVTELPAVPAPSQPTGAPTPSPAPQQYIVVTVSEGAMRASETVSEASPGSTASQTGVPTQVVQQVQGTQQRLLVQTSVQAKPGHVSPLQLTNIQVPQQALPTQRLVVQSAAPGSKGGQVSLTVHGTQQVHSPPEQSPVQANSSSSKTAGAPTGTVPQQLQVHGVQQSVPVTQERSVVQATPQAPKPGPVQPLTVQGLQPVHVAQEVQQLQQVPVPHVYSSQVQYVEGGDASYTASAIRSSTYSYPETPLYTQTASTSYYEAAGTATQVSTPATSQAVASSGSMPMYVSGSQVVASSTSTGAGASNSSGGGGSGGGGGGGGGGGGGGSGSTGGGGSGAGTYVIQGGYMLGSASQSYSHTTRASPATVQWLLDNYETAEGVSLPRSTLYCHYLLHCQEQKLEPVNAASFGKLIRSVFMGLRTRRLGTRGNSKYHYYGLRIKASSPLLRLMEDQQHMAMRGQPFSQKQRLKPIQKMEGMTNGVAVGQQPSTGLSDISAQVQQYQQFLDASRSLPDFTELDLQGKVLPEGVGPGDIKAFQVLYREHCEAIVDVMVNLQFTLVETLWKTFWRYNLSQPSEAPPLAVHDEAEKRLPKAILVLLSKFEPVLQWTKHCDNVLYQGLVEILIPDVLRPIPSALTQAIRNFAKSLESWLTHAMVNIPEEMLRVKVAAAGAFAQTLRRYTSLNHLAQAARAVLQNTAQINQMLSDLNRVDFANVQEQASWVCRCEDRVVQRLEQDFKVTLQQQNSLEQWAAWLDGVVSQVLKPYQGSAGFPKAAKLFLLKWSFYSSMVIRDLTLRSAASFGSFHLIRLLYDEYMYYLIEHRVAQAKGETPIAVMGEFANLATSLNPLDPDKDEEEEEEEESEDELPQDISLAAGGESPALGPETLEPPAKLARTDARGLFVQALPSS"
3,binds,"MED24 (protein, UniProt O75448 1-989) MKVVNLKQAILQAWKERWSDYQWAINMKKFFPKGATWDILNLADALLEQAMIGPSPNPLILSYLKYAISSQMVSYSSVLTAISKFDDFSRDLCVQALLDIMDMFCDRLSCHGKAEECIGLCRALLSALHWLLRCTAASAERLREGLEAGTPAAGEKQLAMCLQRLEKTLSSTKNRALLHIAKLEEASSWTAIEHSLLKLGEILANLSNPQLRSQAEQCGTLIRSIPTMLSVHAEQMHKTGFPTVHAVILLEGTMNLTGETQSLVEQLTMVKRMQHIPTPLFVLEIWKACFVGLIESPEGTEELKWTAFTFLKIPQVLVKLKKYSHGDKDFTEDVNCAFEFLLKLTPLLDKADQRCNCDCTNFLLQECGKQGLLSEASVNNLMAKRKADREHAPQQKSGENANIQPNIQLILRAEPTVTNILKTMDADHSKSPEGLLGVLGHMLSGKSLDLLLAAAAATGKLKSFARKFINLNEFTTYGSEESTKPASVRALLFDISFLMLCHVAQTYGSEVILSESRTGAEVPFFETWMQTCMPEEGKILNPDHPCFRPDSTKVESLVALLNNSSEMKLVQMKWHEACLSISAAILEILNAWENGVLAFESIQKITDNIKGKVCSLAVCAVAWLVAHVRMLGLDEREKSLQMIRQLAGPLFSENTLQFYNERVVIMNSILERMCADVLQQTATQIKFPSTGVDTMPYWNLLPPKRPIKEVLTDIFAKVLEKGWVDSRSIHIFDTLLHMGGVYWFCNNLIKELLKETRKEHTLRAVELLYSIFCLDMQQVTLVLLGHILPGLLTDSSKWHSLMDPPGTALAKLAVWCALSSYSSHKGQASTRQKKRHREDIEDYISLFPLDDVQPSKLMRLLSSNEDDANILSSPTDRSMSSSLSASQLHTVNMRDPLNRVLANLFLLISSILGSRTAGPHTQFVQWFMEECVDCLEQGGRGSVLQFMPFTTVSELVKVSAMSSPKVVLAITDLSLPLGRQVAAKAIAAL"
4,binds,"ERCC2 (protein, UniProt P18074 1-760) MKLNVDGLLVYFPYDYIYPEQFSYMRELKRTLDAKGHGVLEMPSGTGKTVSLLALIMAYQRAYPLEVTKLIYCSRTVPEIEKVIEELRKLLNFYEKQEGEKLPFLGLALSSRKNLCIHPEVTPLRFGKDVDGKCHSLTASYVRAQYQHDTSLPHCRFYEEFDAHGREVPLPAGIYNLDDLKALGRRQGWCPYFLARYSILHANVVVYSYHYLLDPKIADLVSKELARKAVVVFDEAHNIDNVCIDSMSVNLTRRTLDRCQGNLETLQKTVLRIKETDEQRLRDEYRRLVEGLREASAARETDAHLANPVLPDEVLQEAVPGSIRTAEHFLGFLRRLLEYVKWRLRVQHVVQESPPAFLSGLAQRVCIQRKPLRFCAERLRSLLHTLEITDLADFSPLTLLANFATLVSTYAKGFTIIIEPFDDRTPTIANPILHFSCMDASLAIKPVFERFQSVIITSGTLSPLDIYPKILDFHPVTMATFTMTLARVCLCPMIIGRGNDQVAISSKFETREDIAVIRNYGNLLLEMSAVVPDGIVAFFTSYQYMESTVASWYEQGILENIQRNKLLFIETQDGAETSVALEKYQEACENGRGAILLSVARGKVSEGIDFVHHYGRAVIMFGVPYVYTQSRILKARLEYLRDQFQIRENDFLTFDAMRHAAQCVGRAIRGKTDYGLMVFADKRFARGDKRGKLPRWIQEHLTDANLNLTVDEGVQVAKYFLRQMAQPFHREDQLGLSLLSLEQLESEETLKRIEQIAQQL"
5,binds,"CTNND2 (protein, UniProt Q9UQB3 1-1225) MFARKPPGAAPLGAMPVPDQPSSASEKTSSLSPGLNTSNGDGSETETTSAILASVKEQELQFERLTRELEAERQIVASQLERCKLGSETGSMSSMSSAEEQFQWQSQDGQKDIEDELTTGLELVDSCIRSLQESGILDPQDYSTGERPSLLSQSALQLNSKPEGSFQYPASYHSNQTLALGETTPSQLPARGTQARATGQSFSQGTTSRAGHLAGPEPAPPPPPPPREPFAPSLGSAFHLPDAPPAAAAAALYYSSSTLPAPPRGGSPLAAPQGGSPTKLQRGGSAPEGATYAAPRGSSPKQSPSRLAKSYSTSSPINIVVSSAGLSPIRVTSPPTVQSTISSSPIHQLSSTIGTYATLSPTKRLVHASEQYSKHSQELYATATLQRPGSLAAGSRASYSSQHGHLGPELRALQSPEHHIDPIYEDRVYQKPPMRSLSQSQGDPLPPAHTGTYRTSTAPSSPGVDSVPLQRTGSQHGPQNAAAATFQRASYAAGPASNYADPYRQLQYCPSVESPYSKSGPALPPEGTLARSPSIDSIQKDPREFGWRDPELPEVIQMLQHQFPSVQSNAAAYLQHLCFGDNKIKAEIRRQGGIQLLVDLLDHRMTEVHRSACGALRNLVYGKANDDNKIALKNCGGIPALVRLLRKTTDLEIRELVTGVLWNLSSCDALKMPIIQDALAVLTNAVIIPHSGWENSPLQDDRKIQLHSSQVLRNATGCLRNVSSAGEEARRRMRECDGLTDALLYVIQSALGSSEIDSKTVENCVCILRNLSYRLAAETSQGQHMGTDELDGLLCGEANGKDAESSGCWGKKKKKKKSQDQWDGVGPLPDCAEPPKGIQMLWHPSIVKPYLTLLSECSNPDTLEGAAGALQNLAAGSWKWSVYIRAAVRKEKGLPILVELLRIDNDRVVCAVATALRNMALDVRNKELIGKYAMRDLVHRLPGGNNSNNTASKAMSDDTVTAVCCTLHEVITKNMENAKALRDAGGIEKLVGISKSKGDKHSPKVVKAASQVLNSMWQYRDLRSLYKKDGWSQYHFVASSSTIERDRQRPYSSSRTPSISPVRVSPNNRSASAPASPREMISLKERKTDYECTGSNATYHGAKGEHTSRKDAMTAQNTGISTLYRNSYGAPAEDIKHNQVSAQPVPQEPSRKDYETYQPFQNSTRNYDESFFEDQVHHRPPASEYTMHLGLKSTGNYVDFYSAARPYSELNYETSHYPASPDSWV"
